Reference: the supplement of paper PMC3334620
In all, about 33,000 sequences were measured (“E-score (-0.5 to 0.5)”: median about -0.0059, highest 2% from about 0.26 on). This is one part of the list.

Target: T1, Cin5 (UniProt P40917)
T1 sequence: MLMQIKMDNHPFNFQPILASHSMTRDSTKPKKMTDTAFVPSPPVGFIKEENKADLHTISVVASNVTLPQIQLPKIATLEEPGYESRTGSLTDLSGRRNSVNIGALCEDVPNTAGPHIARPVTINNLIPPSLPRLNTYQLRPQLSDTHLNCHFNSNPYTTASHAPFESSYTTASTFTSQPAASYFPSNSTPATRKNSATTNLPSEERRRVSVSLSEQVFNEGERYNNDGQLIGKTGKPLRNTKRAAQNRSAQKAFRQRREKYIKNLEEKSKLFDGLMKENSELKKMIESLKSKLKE
Test: PBM E-score (8-mer binding enrichment) (E-score (-0.5 to 0.5)); higher = stronger / more preferred TF binding
Details: protein concentration: 100 nM; construct: GST-full length
Experimental: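 Universal 'all 10-mer' protein binding microarrays (Agilent AMADID 015681) probed with GST-tagged S. cerevisiae TFs (full-length or DBD) made by in vitro transcription/translation (PURExpress), about 100-200 nM. Bound TF was detected with fluorescent anti-GST. Each ungapped 8-mer (which stands for itself and its reverse complement) is scored by the PBM enrichment score (E-score), a modified Wilcoxon-Mann-Whitney statistic from -0.5 to +0.5, computed with the Universal PBM Analysis Suite. Scale: above 0.35 generally sequence-specific binding.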

Point of comparison: GTGTTCTA, “PBM E-score” value 0.194. Against it:
- CTCGGTCC — lower, -0.179
- CCCGTTTC — lower, -0.0716
- AGGTGCCC — lower, -0.274
- CAGGATAG — lower, 0.049
- ATGAACAT — lower, 0.134
- CAAACTAG — lower, -0.0187
- ATCTTGGC — lower, 0.0234
- GAACAGTC — lower, -0.136
- AGAAAGAG — lower, 0.0149
- AAGTAATC — higher, 0.339
- CCATGCCA — lower, 0.0583
- CAAGGTCA — lower, -0.182
- ATTCTCGC — lower, -0.0981
- AGTGAAAG — lower, 0.028
- ATGTGTGA — lower, -0.0496
- ATCTTTCC — lower, 0.187
- GATACGTA — lower, 0.0494
- AACATATC — lower, 0.128
- CGGGAGAC — lower, -0.129
- GCTCGGGA — lower, -0.157
- AGGAGCTG — lower, -0.219
- AAGGGCGA — lower, -0.241
- CACACTCC — lower, -0.0415
- ACAGGGCG — lower, 0.0253
- TCCAGGGA — lower, -0.201
- ATCCCGTG — higher, 0.219
- CCTGTCAA — lower, -0.0966
- ACTCAGGC — lower, -0.0282
- GTTATGTA — higher, 0.276
- AGCACCCT — lower, -0.286
- ATCCATTG — lower, 0.144
- GGCATGGA — lower, 0.0379
- AGCGCCAG — lower, -0.2
- CTGAATGC — lower, -0.173
- CTAAGAGC — lower, -0.0674
- AACCTCGA — lower, -0.0539
- ATTTGAGA — lower, 0.104
- ACGGCGTA — lower, -0.0363
- AAGGAACC — lower, 0.0344
- AAAAGTAT — lower, 0.138
- AGAAGTGC — lower, -0.255
- AATCAACC — lower, 0.141
- AGCAAGCT — lower, -0.156
- AAGACCCC — lower, -0.0378
- AAAATACC — lower, 0.0891
- TAATGGAA — higher, 0.281
- CGAATCAC — lower, 0.0292
- ACTCACCA — lower, 0.0441
- ACGCTGAG — lower, -0.0314
- CTTCTAAA — lower, -0.202
- TAGACTGA — lower, -0.0193
- GTTCGGCA — lower, -0.0166
- CGATCCAG — lower, 0.0305
- ATCAGTTA — lower, 0.165
- CTTTTCTA — lower, -0.184
- AGGTGGAT — lower, -0.12
- ACGATGAT — lower, 0.0141
- GACTAAGA — lower, -0.0692
- AAGACGTA — lower, -0.0276
- AAGCGGAT — lower, 0.0776
- ATGAGGTA — lower, 0.128
- TCCGCACA — lower, -0.0639
- ATAAAAAA — lower, 0.0702
- CGTGGCGA — lower, -0.141
- CACTCCTA — lower, -0.232
- GGGTACTA — lower, 0.0192
- AACGTTAG — lower, 0.0292
- CGGTTCAC — lower, -0.206
- CTAAATTC — lower, 0.0709
- ATTCCACG — lower, 0.0808
- TGACACCA — lower, 0.00088
- GTGTCTGA — lower, 0.0227
- CGGAAGCC — lower, -0.138
- GCAACATA — lower, 0.0111
- AGTGGCGA — lower, 0.16
- GCGAAGAA — lower, 0.0108
- GTGTCCTA — lower, -0.0463
- AGTAGTGC — lower, 0.0767
- ATGGCCGA — lower, 0.0473
- GGCGGCAA — lower, -0.184
- GCCTAAAC — lower, -0.179
- CGGCCTGC — lower, -0.254
- TCGGGTAA — lower, 0.0904
- AGCGCGTG — lower, -0.118
- GCGGAGAC — lower, 0.0831
- GGGATGAC — lower, 0.0306
- GAACATAA — higher, 0.198
- CGTCATAG — lower, -0.116
- TCACCGCA — lower, -0.0648
- CCAGCTGG — lower, -0.0237
- AACCGCGA — higher, 0.232
- AGGGCGAC — lower, -0.145
- CCACCTCC — lower, -0.266
- ACTTCCGA — lower, 0.103
- GAATACGC — lower, 0.151
- ACCGTCAA — lower, -0.0143
- CGTTCAGC — lower, -0.0513
- AGGCCCAC — lower, -0.376
- AAGCCGAC — lower, -0.101
- AACTTGGA — lower, 0.0817
- CACTGTCA — lower, 0.0443
- CTCGCCTA — lower, 0.0943
- CGCGAGAA — lower, -0.0242
- CAGGAAAA — lower, 0.0838
- CCCGCAAA — lower, 0.142
- AAACAAAA — lower, 0.137
- TACCTAGA — lower, -0.0428
- AACTAGGG — lower, -0.0214
- ACAAAAAA — higher, 0.207
- CAGAAGGA — lower, -0.262
- GCGCGACC — lower, -0.0799
- GTCCATGA — lower, -0.162
- AACCTAAG — lower, 0.12
- CAGTTAAA — lower, -0.00337
- AGCCCTCG — lower, -0.168
- TTCTTAAA — lower, -0.064
- AACAGATG — lower, -0.0195
- CCGTATGC — lower, 0.159
- GCGATAAC — lower, 0.0145
- CATGTGAG — lower, -0.0813
- GGAAATCC — lower, -0.00618
- GACGACGA — lower, 0.0654
- AAAAACCA — lower, 0.0166
- ACGGACTG — lower, -0.211
- CGCCTGCA — lower, -0.179
- CGAACTAA — lower, 0.122
- CGACCATA — lower, -0.0514
- ATACGTCG — lower, 0.0973
- AGCCCGCT — lower, -0.272
- TACAAATA — higher, 0.239
- AAAGACAT — lower, 0.063
- AAAGTTAC — lower, 0.05
- AGGGGCAT — lower, -0.00366
- CGGACCAC — lower, -0.0349
- CATTTGTA — higher, 0.196
- AGACTGAG — lower, -0.206
- GGTATTAA — lower, 0.064
- CCTGATCA — lower, -0.0926
- CGTCATCC — higher, 0.231
- AAAGGATC — lower, -0.0193
- CCGATTCG — higher, 0.213
- ACGGTCAA — lower, 0.0388
- CCTGGGAA — lower, -0.0453
- CATTACGA — lower, 0.127
- AACGATAA — lower, 0.0174
- ATAACCCG — lower, -0.12
- GCACAAAA — lower, 0.172
- ACCCTCTC — lower, -0.135
- CACCATCG — lower, -0.196
- GACTGTAC — lower, -0.121
- GTCCCTAA — lower, -0.0706
- CTCGCAAA — lower, -0.0438
- AGGACGTC — lower, -0.0926
- AGCAGAGC — lower, -0.204
- ACAATGCC — lower, 0.0284
- ATAAAGGG — lower, -0.246
- GCCTTGCA — lower, -0.0942
- AGCATCTC — lower, -0.00955
- CCTCTAAA — lower, -0.0808
- AGAGCGGA — lower, -0.0173
- AATCACCT — lower, 0.0958
- AAGGGTCT — lower, -0.175
- CTTGGATA — lower, -0.0489
- ACCAGTAG — lower, -0.15
- ATTGGCGA — lower, 0.0406
- GTTTAGGA — lower, -0.26
- AGTGTGAG — lower, -0.112
- CTGTACGA — lower, 0.0228
- CAAATCCA — lower, 0.107
- CGCCACCG — lower, -0.068
- AAGGACTT — lower, -0.312
